These are yes or no findings as the source states them, for the method shown. For some of these results: In cells and extracts the contact can be indirect. Some binding calls cover weakened binding; strength is not graded here. Sequences can lack the tags named with a protein. Blank lines part the entries; values can stand above or below the binder they belong to.
Tests used:
[1] = target: LexA-Max (full length Max polypeptide fused to LexA) (UniProt P61244); test: yeast two-hybrid, X-gal plates (B42-Nmi prey, LexA bait)
[2] = target: LexA-Max (full length Max polypeptide fused to LexA) (UniProt P61244); test: yeast two-hybrid (member of the group by paragraph 437: bHLH-Zip)
[3] = target: Full-length His-tagged N-myc (pCMV8 vector, expressed in 293 cells) (UniProt P04198); test: co-precipitation from transfected mammalian cells
[4] = target: GST-C-myc (full length C-myc in pEBG vector, expressed in 293 cells) (UniProt P01106); test: co-precipitation from transfected mammalian cells
[5] = target: Full-length His-tagged N-myc (pCMV8 vector, expressed in 293 cells) (UniProt P04198); test: co-precipitation from 293 cells on His-resin, anti-HA Western blot
[6] = target: GST-C-myc (full length C-myc in pEBG vector, expressed in 293 cells) (UniProt P01106); test: co-precipitation from 293 cells on GST-resin (glutathione-agarose), anti-HA Western blot
[7] = target: full length Mxi2 fused to LexA1-220 (UniProt P0A7C2); test: yeast two-hybrid screen of a HeLa cDNA library with the LexA-Mxi2 bait; both colonies held the partial Omi cDNA
[8] = target: LexA-Max (full length Max polypeptide fused to LexA) (UniProt P61244); test: yeast two-hybrid screen of a human keratinocyte cDNA library with the LexA-Max bait
[9] = target: LexA-Max (full length Max polypeptide fused to LexA) (UniProt P61244); test: yeast two-hybrid
[10] = target: T1, RB protein (LexA fusion bait) (UniProt P06400); test: yeast mating assay (two-hybrid)
T1 sequence (looked up): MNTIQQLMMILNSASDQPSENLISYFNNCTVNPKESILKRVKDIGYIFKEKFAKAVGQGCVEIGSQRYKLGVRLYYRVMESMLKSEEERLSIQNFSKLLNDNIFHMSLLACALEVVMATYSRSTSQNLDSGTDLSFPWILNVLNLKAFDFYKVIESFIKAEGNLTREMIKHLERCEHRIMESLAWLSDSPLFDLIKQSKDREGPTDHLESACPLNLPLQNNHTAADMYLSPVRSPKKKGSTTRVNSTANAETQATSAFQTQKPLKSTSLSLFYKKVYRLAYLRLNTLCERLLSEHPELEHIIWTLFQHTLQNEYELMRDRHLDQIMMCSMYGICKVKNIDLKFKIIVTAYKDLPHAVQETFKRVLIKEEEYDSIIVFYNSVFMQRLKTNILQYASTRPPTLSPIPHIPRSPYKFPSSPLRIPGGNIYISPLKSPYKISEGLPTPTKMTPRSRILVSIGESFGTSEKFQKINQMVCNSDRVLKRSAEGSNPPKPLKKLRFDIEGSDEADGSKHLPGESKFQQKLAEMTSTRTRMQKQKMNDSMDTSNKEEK

Chains of the proteins cited; added tags and fusions are not shown. Lines headed by an entry give the natural chain unless they say otherwise; changes in a name come on top. Residues count along the entry.
UniProt P61244, residues 2-160: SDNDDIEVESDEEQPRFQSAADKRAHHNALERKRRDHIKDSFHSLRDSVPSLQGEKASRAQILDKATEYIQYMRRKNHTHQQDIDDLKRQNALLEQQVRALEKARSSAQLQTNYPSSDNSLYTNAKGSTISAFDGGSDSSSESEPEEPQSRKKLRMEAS
UniProt P04198: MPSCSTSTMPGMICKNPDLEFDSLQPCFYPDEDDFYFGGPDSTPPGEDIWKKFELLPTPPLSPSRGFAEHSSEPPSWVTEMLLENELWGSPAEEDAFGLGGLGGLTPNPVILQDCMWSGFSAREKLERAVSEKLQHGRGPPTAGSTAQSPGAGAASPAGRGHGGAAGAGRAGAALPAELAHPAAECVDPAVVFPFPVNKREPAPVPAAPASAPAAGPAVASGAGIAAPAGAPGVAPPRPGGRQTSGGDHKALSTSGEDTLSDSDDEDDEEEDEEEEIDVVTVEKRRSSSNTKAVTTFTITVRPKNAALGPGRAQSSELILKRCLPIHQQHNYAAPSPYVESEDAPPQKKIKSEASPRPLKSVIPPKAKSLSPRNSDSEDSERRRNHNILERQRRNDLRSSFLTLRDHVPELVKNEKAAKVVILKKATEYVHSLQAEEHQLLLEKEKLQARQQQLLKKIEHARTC
UniProt P01106: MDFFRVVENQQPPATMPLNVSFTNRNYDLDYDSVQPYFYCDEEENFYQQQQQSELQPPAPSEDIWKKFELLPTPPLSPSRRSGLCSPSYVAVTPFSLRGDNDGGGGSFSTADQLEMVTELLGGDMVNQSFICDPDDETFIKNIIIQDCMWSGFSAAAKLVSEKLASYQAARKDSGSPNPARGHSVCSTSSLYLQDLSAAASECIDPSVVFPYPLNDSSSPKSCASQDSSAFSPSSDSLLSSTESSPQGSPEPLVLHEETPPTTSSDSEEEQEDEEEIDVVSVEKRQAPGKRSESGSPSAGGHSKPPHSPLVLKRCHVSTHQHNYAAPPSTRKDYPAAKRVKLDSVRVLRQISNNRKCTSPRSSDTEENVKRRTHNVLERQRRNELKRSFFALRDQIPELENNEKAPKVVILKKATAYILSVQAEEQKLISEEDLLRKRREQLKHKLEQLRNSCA
UniProt P0A7C2: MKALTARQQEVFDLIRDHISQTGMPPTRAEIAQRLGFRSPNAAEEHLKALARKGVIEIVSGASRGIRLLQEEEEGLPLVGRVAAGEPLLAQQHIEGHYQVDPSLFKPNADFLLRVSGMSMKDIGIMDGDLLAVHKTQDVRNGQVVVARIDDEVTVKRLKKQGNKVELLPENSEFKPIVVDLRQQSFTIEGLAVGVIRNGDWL
UniProt Q08999, residues 417-1139: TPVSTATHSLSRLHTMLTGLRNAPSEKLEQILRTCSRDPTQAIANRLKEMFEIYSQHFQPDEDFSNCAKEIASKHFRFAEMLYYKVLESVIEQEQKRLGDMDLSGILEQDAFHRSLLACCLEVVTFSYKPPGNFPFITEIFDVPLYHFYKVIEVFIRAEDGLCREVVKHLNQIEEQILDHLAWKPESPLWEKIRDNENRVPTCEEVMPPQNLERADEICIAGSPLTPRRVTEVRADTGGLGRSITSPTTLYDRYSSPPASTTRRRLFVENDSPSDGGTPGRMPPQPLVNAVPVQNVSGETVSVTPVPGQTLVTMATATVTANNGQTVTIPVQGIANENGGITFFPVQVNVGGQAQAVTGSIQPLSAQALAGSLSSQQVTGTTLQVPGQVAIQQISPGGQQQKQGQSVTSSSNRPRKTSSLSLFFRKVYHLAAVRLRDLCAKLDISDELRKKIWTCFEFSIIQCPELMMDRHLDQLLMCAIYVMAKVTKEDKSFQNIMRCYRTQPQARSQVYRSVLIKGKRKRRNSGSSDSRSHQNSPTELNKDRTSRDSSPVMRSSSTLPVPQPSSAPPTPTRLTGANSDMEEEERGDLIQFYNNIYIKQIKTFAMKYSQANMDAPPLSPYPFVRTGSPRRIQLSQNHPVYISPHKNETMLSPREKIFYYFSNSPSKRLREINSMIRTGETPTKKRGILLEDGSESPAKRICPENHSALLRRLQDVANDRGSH

[11] = target: T2, p107 protein (LexA fusion bait) (UniProt P28749); test: yeast mating assay (two-hybrid)
T2 sequence (looked up): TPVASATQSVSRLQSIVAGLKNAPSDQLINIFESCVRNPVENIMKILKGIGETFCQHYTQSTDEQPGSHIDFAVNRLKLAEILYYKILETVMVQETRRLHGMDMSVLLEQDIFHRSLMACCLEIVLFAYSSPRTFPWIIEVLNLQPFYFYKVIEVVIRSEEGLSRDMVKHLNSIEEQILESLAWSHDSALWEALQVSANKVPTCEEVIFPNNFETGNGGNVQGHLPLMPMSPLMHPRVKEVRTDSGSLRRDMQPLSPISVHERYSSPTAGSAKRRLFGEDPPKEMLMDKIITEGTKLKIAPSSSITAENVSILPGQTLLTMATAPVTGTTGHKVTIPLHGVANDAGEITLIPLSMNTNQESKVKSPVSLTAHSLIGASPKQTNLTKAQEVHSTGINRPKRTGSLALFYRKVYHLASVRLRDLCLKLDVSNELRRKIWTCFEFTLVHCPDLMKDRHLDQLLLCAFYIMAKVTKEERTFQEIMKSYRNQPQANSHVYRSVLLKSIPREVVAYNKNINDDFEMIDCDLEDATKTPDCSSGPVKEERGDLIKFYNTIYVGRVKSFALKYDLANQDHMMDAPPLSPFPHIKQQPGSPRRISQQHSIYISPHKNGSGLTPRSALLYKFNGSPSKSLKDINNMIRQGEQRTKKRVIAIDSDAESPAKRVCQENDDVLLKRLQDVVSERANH

[12] = target: p130 protein (LexA fusion bait) (UniProt Q08999); test: yeast mating assay (two-hybrid)

- binding [7]: binds
B3: partial Omi polypeptide of 313 amino acids fused in frame to the B42 activation domain of the pJG-4.5 vector (protein, not shown: large carriers)
chain: QYNFIADVVEKTAPAVVYIEILDRHPFLGREVPISNGSGFVVAADGLIVTNAHVVADRRRVRVRLLSGDTYEAVVTAVDPVADIATLRIQTKEPLPTLPLGRSADVRQGEFVVAMGSPFALQNTITSGIVSSAQRPARDLGLPQTNVEYIQTDAAIDFGNSGGPLVNLDGEVIGVNTMKVTAGISFAIPSDRLREFLHRGEKKNSSSGISGSQRRYIGVMMLTLSPSILAELQLREPSFPDVQHGVLIHKVILGSPAHRAGLRPGDVILAIGEQMVQNAEDVYEAVRTQSQLAVQIRRGRETLTLYVTPEVTE

- binding [9]: binds
- binding [10]: binds
- binding [11]: binds
- binding [12]: binds
B6: p32.2, polypeptide of 756 amino acids encoded by clone 32.2, fused in frame with the B42 activation domain of the pJG-4.5 vector (protein, not shown: large carriers)
chain: IENDQQHQAAELECEEDVIPDSPITAFSFSGVNRLRRKENPHVRYIEQTHTKLEHSVCANEMRKVSKSSTHPQHNPNENEILVADTYDQSQSPMAKAHGTSSYTPDKSSFNLATVVAETLGLGVQEESETQGPMSPLGDELYHCLEGNHKKQPFEESTRNTEDSLRFSDSTSKTPPQEELPTRVSSPVFGATSSIKSGLDLNTSLSPSLLQPGKKKHLKTLPFSNTCISRLEKTRSKSEDSALFTHHSLGSEVNKIIIQSSNKQILINKNISESLGEQNRTEYGKDSNTDKHLEPLKSLGGRTSKRKKTEEESEHEVSCPQASFDKENAFPFPMDNQFSMNGDCVMDKPLDLSDRFSAIQRQEKSQGSETSKNKFRQVTLYEALKTIPKGFSSSRKASDGNCTLPKDSPGEPCSQECIILQPLNKCSPDNKPSLQIKEENAVFKIPLRPRESLETENVLDDIKSAGSHEPIKIQTRSDHGGCELASVLQLNPCRTGKIKSLQNNQDVSFENIQWSIDPGADLSQYKMDVTVIDTKDGSQSKLGGETVDMDCTLVSETVLLKMKKQEQKGEKSSNEERKMNDSLEDMFDRTTHEEYESCLADSFSQAADEEEELSTATKKLHTHGDKQDKVKQKAFVEPYFKGDERETSLQNFPHIECVRKKEERRKLLGHTCKECEIYYADMPAEEREKKLASCSRHRFRYIPPNTPENFWEVGFPSTQTCMERGYIKEDLDPCPRPKRRQPYNAIFSPKGKEQKT

Second part, the binder before the results:

B1: full length Nmi fused in-frame with the transcriptional activator B42 in JG4-5 vector (protein, not shown: small tags and cut ends)
chain: MEADKDDTQQILKEHSPDEFIKDEQNKGLIDEITKKNIQLKKEIQKLETELQEATKEFQIKEDIPETKMKFLSVETPENDSQLSNISCSFQVSSKVPYEIQKGQALITFEKEEVAQNVVSMSKHHVQIKDVNLEVTAKPVPLNSGVRFQVYVEVSKMKINVTEIPDTLREDQMRDKLELSFSKFRNGGGEVDRVDYDRQSGSAVITFVEIGVADKILKKKEYPLYINQTCHRVTVSPYTEIHLKKYQIFSGTSKRTVLLTGMEGIQMDEEIVEDLINIHFQRAKNGGGEVDVVKCSLGQPHIAYFEE
- binding [1]: binds
- binding [2]: binds

B2: Nmi-HA (full length Nmi in pMT3 vector, expressed in 293 cells) (protein, not shown: small tags and cut ends)
chain: B1 chain
- binding [3]: binds
- binding [4]: binds
- binding [5]: binds
- binding [6]: binds

B4: L-myc (positive clone of the human keratinocyte cDNA library in pJG4-5) (protein, UniProt P12524 260-364, looked up, not shown: large carriers)
chain: VESEAAQSCHPKPVSSDTEDVTKRKNHNFLERKRRNDLRSRFLALRDQVPTLASCSKAPKVVILSKALEYLQALVGAEKRMATEKRQLRCRQQQLQKRIAYLTGY
- binding [8]: binds

B5: Mad4 (positive clone of the human keratinocyte cDNA library in pJG4-5) (protein, UniProt Q14582 1-209, looked up, not shown: large carriers)
chain: MELNSLLILLEAAEYLERRDREAEHGYASVLPFDGDFAREKTKAAGLVRKAPNNRSSHNELEKHRRAKLRLYLEQLKQLVPLGPDSTRHTTLSLLKRAKVHIKKLEEQDRRALSIKEQLQQEHRFLKRRLEQLSVQSVERVRTDSTGSAVSTDDSEQEVDIEGMEFGPGELDSVGSSSDADDHYSLQSGTGGDSGFGPHCRRLGRPALS
- binding [8]: binds

Reference: patent US20030157685A1
